Assay results: patent publication US20140024594A1
No constants are given. Whether binding was seen depends on the method and setting. In cells and extracts the contact can be indirect. Some binding calls cover weakened binding; strength is not graded here.

Molecular target: T1, MG53 (mitsugumin 53, TRIM72), endogenous mouse protein from skeletal muscle (mouse) (UniProt Q1XH17)
T1 sequence (looked up): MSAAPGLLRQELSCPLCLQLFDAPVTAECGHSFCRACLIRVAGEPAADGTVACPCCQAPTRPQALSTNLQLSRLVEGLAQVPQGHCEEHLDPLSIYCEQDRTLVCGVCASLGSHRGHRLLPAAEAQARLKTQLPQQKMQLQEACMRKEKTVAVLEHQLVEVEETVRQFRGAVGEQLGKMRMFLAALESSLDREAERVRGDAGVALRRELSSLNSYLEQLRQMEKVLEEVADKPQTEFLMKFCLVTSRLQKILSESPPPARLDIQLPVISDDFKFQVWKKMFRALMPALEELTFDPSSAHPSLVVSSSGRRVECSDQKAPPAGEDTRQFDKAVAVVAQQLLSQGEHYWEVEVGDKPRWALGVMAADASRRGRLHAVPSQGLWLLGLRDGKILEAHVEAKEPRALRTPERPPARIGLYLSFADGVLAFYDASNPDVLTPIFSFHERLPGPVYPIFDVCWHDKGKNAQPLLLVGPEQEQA
Experiment: co-immunoprecipitation from mouse gastrocnemius skeletal muscle lysate with anti-MG53 and anti-caveolin-3 antibodies

binding: binds
B1: caveolin-3, endogenous mouse protein from skeletal muscle (protein, UniProt P51637 1-151, looked up)
chain: MMTEEHTDLEARIIKDIHCKEIDLVNRDPKNINEDIVKVDFEDVIAEPEGTYSFDGVWKVSFTTFTVSKYWCYRLLSTLLGVPLALLWGFLFACISFCHIWAVVPCIKSYLIEIQCISHIYSLCIRTFCNPLFAALGQVCSNIKVVLRREG
